Source: paper PMC1906734
Substitutions are numbered along the chain they refer to. No constants are given. Whether binding was seen depends on the method and setting. Some results given as binding are weak or reduced against the parent protein; the word gives no strength. Where a sequence is shown, tags or fusion partners need not be part of it.

Protein sequences, listed by entry. Tags and fused reporters are not part of them. Residues count along the entry.
UniProt G3I8R9, residues 19-654: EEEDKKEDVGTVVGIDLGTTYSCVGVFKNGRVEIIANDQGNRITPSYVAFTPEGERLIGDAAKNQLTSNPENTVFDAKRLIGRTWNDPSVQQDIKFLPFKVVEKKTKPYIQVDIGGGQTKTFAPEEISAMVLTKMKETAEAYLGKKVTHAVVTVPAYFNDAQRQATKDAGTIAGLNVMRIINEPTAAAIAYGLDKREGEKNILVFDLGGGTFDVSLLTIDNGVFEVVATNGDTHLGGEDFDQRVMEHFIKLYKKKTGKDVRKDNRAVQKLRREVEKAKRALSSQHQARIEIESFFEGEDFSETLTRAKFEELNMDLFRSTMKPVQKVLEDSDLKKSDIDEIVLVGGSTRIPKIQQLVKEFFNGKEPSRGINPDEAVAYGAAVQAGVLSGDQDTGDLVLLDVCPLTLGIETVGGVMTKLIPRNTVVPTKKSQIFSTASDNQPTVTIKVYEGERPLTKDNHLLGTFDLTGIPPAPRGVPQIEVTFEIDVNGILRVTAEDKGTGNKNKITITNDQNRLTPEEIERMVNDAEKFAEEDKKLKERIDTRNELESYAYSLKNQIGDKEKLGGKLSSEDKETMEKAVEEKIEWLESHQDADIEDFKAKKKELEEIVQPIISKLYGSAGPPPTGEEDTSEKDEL

Assays:
[1] = biological target: T1, GST-ERj1-J fusion protein (J-domain of murine ERj1 fused to glutathione S-transferase) (mouse) (UniProt Q61712); assay: SPR; GST fusion proteins (400 response units) captured by anti-GST antibodies on a CM5 chip, GST in the reference cell; BiP 0.25-2 μM passed over at 20 μl/min; PBS with 3 mM KCl, 1 mM MgCl2, 0.1% Tween 20 and 2 mM ATP; maximum response against concentration, one-site fit; apparent affinity; both …
T1 sequence: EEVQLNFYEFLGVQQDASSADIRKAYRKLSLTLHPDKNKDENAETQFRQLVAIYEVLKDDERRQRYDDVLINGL

[2] = biological target: T2, GST-ERj1-J-H33Q (mouse) (UniProt Q61712); assay: pull-down; GST-ERj1-J or its mutant derivative (0.5 μM) bound to GSH-Sepharose beads; BiP 0.5 μM in PBS, with and without ATP (2 mM), 1 h at 4 °C; eluate analysed by SDS-PAGE; both purified
T2 sequence: T1 sequence with H34Q

[3] = biological target: T1, GST-ERj1-J fusion protein (J-domain of murine ERj1 fused to glutathione S-transferase) (mouse); assay: as above
[4] = biological target: T3, GST-ERj1-J-R26A (mouse) (UniProt Q61712); assay: as above
T3 sequence: T1 sequence with R27A

Hamster BiP (from UniProt G3I8R9 19-654)
binding [1]: binds | binding [2]: no binding (tested: 0.5 μM BiP) | binding [3]: binds | binding [4]: binds
